In paper PMC6331469:
Results are given in words; binding and its absence hold for the method and conditions named. In cells and extracts the contact can be indirect. A result given as binding can be weak or reduced; the word gives no strength.

Amino acid sequences for entries named in this document (tags omitted). A change or cut given only in a name is not applied to a line headed by its entry.
UniProt A6K863: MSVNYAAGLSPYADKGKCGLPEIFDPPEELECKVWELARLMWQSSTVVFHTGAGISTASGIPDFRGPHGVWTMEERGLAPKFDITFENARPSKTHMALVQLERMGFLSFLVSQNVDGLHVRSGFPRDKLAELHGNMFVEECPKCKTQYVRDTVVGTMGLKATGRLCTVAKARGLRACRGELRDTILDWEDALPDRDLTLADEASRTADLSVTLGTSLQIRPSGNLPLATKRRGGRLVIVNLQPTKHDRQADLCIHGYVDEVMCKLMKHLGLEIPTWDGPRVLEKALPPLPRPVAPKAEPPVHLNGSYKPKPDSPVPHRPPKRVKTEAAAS

Target: T1, nuclear factor of activated T cells c4 (rat (endogenous in NRCMs)) (UniProt D3Z9H7)
T1 sequence: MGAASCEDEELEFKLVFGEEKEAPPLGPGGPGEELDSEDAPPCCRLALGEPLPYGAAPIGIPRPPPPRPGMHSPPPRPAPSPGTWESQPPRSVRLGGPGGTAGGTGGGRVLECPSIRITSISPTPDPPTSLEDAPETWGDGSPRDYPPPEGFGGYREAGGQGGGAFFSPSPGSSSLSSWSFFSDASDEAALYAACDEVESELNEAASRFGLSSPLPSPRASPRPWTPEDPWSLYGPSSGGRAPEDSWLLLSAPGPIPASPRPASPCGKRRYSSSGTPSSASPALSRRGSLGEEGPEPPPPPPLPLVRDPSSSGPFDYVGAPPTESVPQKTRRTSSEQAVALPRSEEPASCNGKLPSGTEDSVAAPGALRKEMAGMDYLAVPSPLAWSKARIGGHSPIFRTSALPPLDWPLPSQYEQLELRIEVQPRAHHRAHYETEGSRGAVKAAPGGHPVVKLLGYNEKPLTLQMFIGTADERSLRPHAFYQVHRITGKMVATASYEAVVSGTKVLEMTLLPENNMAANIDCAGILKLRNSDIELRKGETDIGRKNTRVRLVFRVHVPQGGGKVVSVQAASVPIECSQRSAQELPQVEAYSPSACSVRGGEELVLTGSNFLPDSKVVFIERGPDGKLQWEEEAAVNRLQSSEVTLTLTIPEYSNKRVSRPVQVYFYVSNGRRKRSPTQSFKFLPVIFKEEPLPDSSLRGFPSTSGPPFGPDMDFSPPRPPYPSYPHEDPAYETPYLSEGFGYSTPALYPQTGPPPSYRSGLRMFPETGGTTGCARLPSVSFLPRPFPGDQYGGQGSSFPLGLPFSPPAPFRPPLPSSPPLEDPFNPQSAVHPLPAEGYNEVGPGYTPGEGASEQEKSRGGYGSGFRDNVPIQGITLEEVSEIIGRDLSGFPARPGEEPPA
Assay: co-IP; 200 ug total protein of NRCMs incubated with anti-NFATc4 antibody (1:200) or rat normal IgG overnight at 4°C, then protein G/A agarose beads for 4 h; washed with lysis buffer; Western blot; for p38 also after overexpression of SIRT6 or H133Y

**Q.** How did the binding turn out when Sirtuin 6 (from UniProt A6K863) was run?
**A.** Its binding is “binds”.
